Screening data, single-dose tests

By UniProt entry, the sequences of proteins in these tests, tags left out.
UniProt P9WFT3, whole entry: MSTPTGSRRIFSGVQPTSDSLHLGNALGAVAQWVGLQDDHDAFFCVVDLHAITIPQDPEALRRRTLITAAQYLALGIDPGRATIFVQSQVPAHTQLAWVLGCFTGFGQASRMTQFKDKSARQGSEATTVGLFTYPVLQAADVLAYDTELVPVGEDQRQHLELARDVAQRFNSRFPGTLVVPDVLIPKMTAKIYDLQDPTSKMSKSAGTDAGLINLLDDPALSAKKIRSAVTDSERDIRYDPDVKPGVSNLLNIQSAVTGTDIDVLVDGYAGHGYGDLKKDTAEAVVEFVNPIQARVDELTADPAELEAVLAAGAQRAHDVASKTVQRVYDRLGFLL
UniProt P9WPC5, whole entry: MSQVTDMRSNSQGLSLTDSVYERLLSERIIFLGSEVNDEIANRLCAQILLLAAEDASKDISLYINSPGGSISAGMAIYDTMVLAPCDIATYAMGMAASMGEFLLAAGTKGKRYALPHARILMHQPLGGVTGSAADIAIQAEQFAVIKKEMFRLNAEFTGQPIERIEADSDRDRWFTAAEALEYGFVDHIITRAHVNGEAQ
UniProt P9WPC3, whole entry partner: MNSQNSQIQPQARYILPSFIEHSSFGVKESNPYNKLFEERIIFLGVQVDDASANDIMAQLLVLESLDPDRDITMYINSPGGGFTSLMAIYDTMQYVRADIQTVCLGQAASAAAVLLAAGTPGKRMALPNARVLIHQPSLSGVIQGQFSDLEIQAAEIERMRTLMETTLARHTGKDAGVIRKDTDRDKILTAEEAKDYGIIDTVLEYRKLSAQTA
UniProt P9WNZ1, whole entry: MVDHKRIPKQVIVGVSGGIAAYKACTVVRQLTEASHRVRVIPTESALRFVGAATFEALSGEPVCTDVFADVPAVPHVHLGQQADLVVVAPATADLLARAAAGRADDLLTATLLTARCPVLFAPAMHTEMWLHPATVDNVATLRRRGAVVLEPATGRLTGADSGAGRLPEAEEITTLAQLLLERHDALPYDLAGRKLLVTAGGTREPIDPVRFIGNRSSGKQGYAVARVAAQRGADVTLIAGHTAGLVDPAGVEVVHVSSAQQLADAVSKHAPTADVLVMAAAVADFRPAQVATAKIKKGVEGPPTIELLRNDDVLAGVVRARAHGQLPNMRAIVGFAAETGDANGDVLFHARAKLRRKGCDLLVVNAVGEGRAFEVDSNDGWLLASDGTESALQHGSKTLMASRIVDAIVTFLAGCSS
UniProt I6X8D2, whole entry: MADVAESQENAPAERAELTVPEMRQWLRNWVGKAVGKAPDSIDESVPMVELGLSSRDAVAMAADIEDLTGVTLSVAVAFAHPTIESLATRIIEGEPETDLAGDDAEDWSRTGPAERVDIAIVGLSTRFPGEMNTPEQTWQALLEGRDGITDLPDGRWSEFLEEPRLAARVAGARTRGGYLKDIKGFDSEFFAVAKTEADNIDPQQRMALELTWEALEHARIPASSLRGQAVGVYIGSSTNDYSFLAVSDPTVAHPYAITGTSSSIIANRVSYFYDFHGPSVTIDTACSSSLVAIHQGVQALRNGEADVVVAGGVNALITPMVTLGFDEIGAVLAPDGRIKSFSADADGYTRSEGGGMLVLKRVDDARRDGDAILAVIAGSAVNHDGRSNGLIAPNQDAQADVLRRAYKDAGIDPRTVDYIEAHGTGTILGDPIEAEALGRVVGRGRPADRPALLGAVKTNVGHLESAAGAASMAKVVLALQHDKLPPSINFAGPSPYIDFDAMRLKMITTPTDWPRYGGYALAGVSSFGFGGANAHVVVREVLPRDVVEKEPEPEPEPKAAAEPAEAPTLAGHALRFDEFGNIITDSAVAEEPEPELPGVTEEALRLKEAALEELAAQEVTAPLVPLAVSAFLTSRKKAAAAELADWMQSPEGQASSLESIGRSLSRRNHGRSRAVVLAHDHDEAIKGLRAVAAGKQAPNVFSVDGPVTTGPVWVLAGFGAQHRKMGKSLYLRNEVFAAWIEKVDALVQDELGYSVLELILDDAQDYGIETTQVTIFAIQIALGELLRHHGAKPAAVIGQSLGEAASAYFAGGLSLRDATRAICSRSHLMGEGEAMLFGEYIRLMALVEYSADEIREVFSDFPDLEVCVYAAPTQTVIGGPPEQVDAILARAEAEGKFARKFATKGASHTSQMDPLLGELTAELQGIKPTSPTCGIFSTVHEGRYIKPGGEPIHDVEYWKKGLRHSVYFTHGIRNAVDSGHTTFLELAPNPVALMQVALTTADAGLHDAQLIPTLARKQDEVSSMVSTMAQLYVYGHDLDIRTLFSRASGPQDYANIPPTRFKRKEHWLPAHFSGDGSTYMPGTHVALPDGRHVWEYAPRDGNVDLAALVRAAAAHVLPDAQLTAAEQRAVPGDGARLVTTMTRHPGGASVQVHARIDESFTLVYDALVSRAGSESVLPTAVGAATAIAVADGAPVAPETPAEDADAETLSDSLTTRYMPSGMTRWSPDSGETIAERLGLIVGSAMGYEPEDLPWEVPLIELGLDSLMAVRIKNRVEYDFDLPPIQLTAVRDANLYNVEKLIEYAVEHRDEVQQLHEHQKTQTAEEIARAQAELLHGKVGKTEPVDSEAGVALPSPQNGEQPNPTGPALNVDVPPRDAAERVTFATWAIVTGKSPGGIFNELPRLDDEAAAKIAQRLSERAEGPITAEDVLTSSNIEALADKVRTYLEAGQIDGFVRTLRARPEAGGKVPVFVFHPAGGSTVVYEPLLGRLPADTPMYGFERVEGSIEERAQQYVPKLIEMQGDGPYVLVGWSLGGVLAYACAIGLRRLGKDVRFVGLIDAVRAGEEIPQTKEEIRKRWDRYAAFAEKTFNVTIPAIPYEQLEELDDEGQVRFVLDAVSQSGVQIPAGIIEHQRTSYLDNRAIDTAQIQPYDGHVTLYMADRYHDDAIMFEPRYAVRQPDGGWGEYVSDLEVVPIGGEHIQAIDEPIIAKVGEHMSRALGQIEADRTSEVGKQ

A: 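Tryptophan-tRNA ligase, Mycobacterium tuberculosis (UniProt P9WFT3). Enzyme assay of tryptophanyl-tRNA synthetase; the read-out is not stated. Tested at 10 µM. Higher most likely means stronger inhibition; the record gives no direction and few retests gave an IC50. Size under these conditions: about 65,000 compounds, about 64 of them at 50% or above in at least one test.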
B: 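Assay of Toxoplasma gondii numbers, read through their beta-galactosidase reporter with a colour substrate. Tested at 10 µM. Higher reads as fewer parasites (inferred from which compounds were picked for retests). About 67,000 compounds were tested under these conditions; 0.38% (about 260) showed 50% or more at least once.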
C: 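ClpP1P2, Mycobacterium tuberculosis (UniProt P9WPC5 and UniProt P9WPC3). Protease assay of ClpP1P2, read by the AMC dye that it sets free. Tested at 50 µM. Direction is inferred from only a few compounds that gave an IC50; most scored high, so higher reads as stronger inhibition. Most other retested compounds had strongly negative values. About 69,000 compounds were tested under these conditions; 0.015% (about 10) showed 50% or more at least once.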
D: 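Coenzyme A biosynthesis protein CoaBC, Mycobacterium tuberculosis (UniProt P9WNZ1). Enzyme assay of CoaBC with a phosphate dye (Biomol Green) read at 650 nm. Concentration: 30 µM. Direction is inferred from only a few compounds that gave an IC50; most scored high, so higher reads as stronger inhibition. Most strong results did not repeat in a second test. Size under these conditions: about 67,000 compounds, about 40 of them at 50% or above in at least one test.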
E: 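Polyketide synthase Pks13, Mycobacterium tuberculosis (UniProt I6X8D2). Enzyme assay of the thioesterase domain of polyketide synthase 13; the read-out is not stated. Compounds at 30 µM. The record gives no direction; the compounds picked for IC50 retests had high values, so higher reads as stronger inhibition. About 67,000 compounds were tested under these conditions; 0.46% (about 300) showed 50% or more at least once.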

The filed quantity is “Percent Effect” (%). How 0% and 100% were set is not recorded. Most values in the screen are low, and negative values occur. This is an unselected part of the compounds tested. A dash means the value is not listed here; it may have been measured.

| compound | A | B | C | D | E |
|---|---|---|---|---|---|
| `CC(C)(C)CN1CCC(c2nccnc2Nc2cnccn2)CC1` | -2.921 | - | -17.34 | 2.375 | 17.62 |
| `COc1cc(C)ccc1OCc1nc(C(=O)N2CCCO2)co1` | 19.59 | -10.94 | -6.874 | 10 | 8.123 |
| `Cn1nc(Cn2cccc2)c2c1CN(Cc1ccoc1)C2.O=C(O)C(F)(F)F` | - | 1.436 | - | - | - |
| `COc1cc(CNC(=O)N2CCCC2c2cc(C)no2)ccn1` (stereo not drawn) | -3.194 | - | -10.08 | 5.781 | - |
| `CCc1nc2c(c(N(C)Cc3nncn3CCOC)n1)CCNCC2` | -1.937 | 2.456 | 0.01662 | -16.38 | -14.07 |
| `Cc1cc(C)nc(Nc2nccnc2C2CCCN(C(C)C)C2)n1` (stereo not drawn) | -3.394 | -6.933 | -28.91 | 5.479 | - |
| `O=C(NCC1(O)CCCCC1)c1coc(COc2cccc(F)c2)n1` | -3.653 | -6.386 | 1.846 | 0.4673 | 15.79 |
| `O=C(O)c1ccccc1-c1c(-c2ccccc2)ncn1CC1CCCO1` (stereo not drawn) | -5.256 | -12.11 | -10.57 | -1.72 | -24.05 |
| `CCc1cccc(C)c1NC(=O)NCCCN(CC)S(C)(=O)=O` | -1.497 | -38.34 | -12.6 | -32.79 | -11.31 |
| `CC(=O)N1CCC(Oc2ccc(C#N)cc2)CC1` | 13.38 | 0.3157 | 9.454 | 4.715 | - |
| `COc1ccc(S(=O)(=O)N2CCC(O)(CN(C)C)C2)cc1` (stereo not drawn) | - | 6.261 | -12.95 | 1.695 | -13.32 |
| `CN1CCCC1CCNC(=O)c1ccccc1-n1cc(CN)cn1` (stereo not drawn) | -3.982 | -14.24 | -12.68 | 13.08 | -10.38 |
| `Cc1ccc(NC2CCN(C(=O)c3ccc(Cl)cc3F)CC2)nn1` | 22.11 | 2.636 | -13.55 | 6.997 | -27.9 |
| `Cn1cc(CN2CCOC3(CCCN(c4cccc(F)c4)C3)C2)cn1.O=C(O)C(F)(F)F.O=C(O)C(F)(F)F` (stereo not drawn) | - | 4.554 | - | - | - |
| `COCC(c1cccc(C(F)(F)F)c1)N(C)C(=O)c1cccnc1` (stereo not drawn) | -4.834 | -3.281 | -20.95 | 6.717 | -1.238 |
| `COc1cc(NC(=O)c2cc(Cl)ccc2F)c(C(=O)N(C)C)cc1OC` | 1.81 | 6.86 | 6.998 | 0 | 6.07 |
| `COc1cc(F)c(NC(=O)N(C)CCNC(=O)N(C)C)cc1F` | 0.5698 | -5.455 | 9.925 | 7.782 | -4.781 |
| `[H][C@@]12CC[C@H](Oc3ccccc3F)[C@]1([H])CN(C(=O)COCCOC)C2` | - | -8.527 | - | - | - |
| `C[S+]([O-])CCNC(=O)N1CCSC(C)(C)C1` (stereo not drawn) | -3.791 | -4.994 | -2.238 | 1.434 | -8.713 |
| `COc1cc(CN[C@@H]2COC[C@H]2Cc2cc(C)no2)cc(OC)c1.O=C(O)CC(O)(CC(=O)O)C(=O)O` | - | 9.464 | - | - | - |
| `CN(C)CC(=O)N1CCCC1c1cncc(Oc2ccc(F)cc2)n1` (stereo not drawn) | - | 16.67 | -7.66 | -2.179 | -15.72 |
| `[H][C@]12CC[C@]([H])(CN(S(=O)(=O)N(C)CC)C1)N(Cc1cscn1)C2=O` | - | -37.17 | - | - | - |
| `CC(=O)N[C@@H]1Cc2ccccc2[C@H]1Nc1ccncn1` | 2.057 | -11.17 | 1.197 | 4.8 | - |
| `Cc1noc([C@H]2COC[C@H]3CN(C(=O)Cc4ccsc4)C[C@H]32)n1` | 2.075 | - | -0.1509 | 4.01 | -1.575 |
| `CN(Cc1cccnc1)CC1CC12CCCC2` (stereo not drawn) | 0.4405 | 5.998 | -5.851 | -0.8264 | 0.4596 |
| `CC(C)c1noc(CCC(=O)Nc2cc(F)ccc2F)n1` | 9.74 | 3.62 | 6.111 | 10.15 | - |
| `OCC1CCN(c2ccc(NCc3ccsc3)nc2)CC1` | -4.159 | -0.6509 | -11.37 | 0 | -13.15 |
| `CN(CC(=O)NC(C)(C)C)Cc1cccc2c1OCCO2` | 0.2463 | -13.41 | 5.034 | 3.563 | -16.54 |
| `CCOCCCOC(=O)c1ccc2c(c1)[nH]c(=O)n2C` | 1.712 | -8.215 | -5.461 | 1.442 | -2.94 |
| `Cc1cc(CN2CCc3nc(-c4ccncc4)nc(O)c3CC2)c(C)s1` | -1.563 | - | 1.056 | 10.69 | -5.387 |
| `CCCc1cc(=O)[nH]c(-n2nc(-c3cccs3)cc2N)n1` | -3.128 | 36.6 | -0.07984 | 3.38 | -15.36 |
| `CNc1cc(CCNC(=O)C2CCCC2)nc(-c2ccccn2)n1` | -5.277 | 6.356 | -4.608 | -13.32 | 2.209 |
| `CC(C)=CCN1C[C@H]2CC[C@@H]1CN(Cc1coc(C)n1)C2` | -0.677 | - | -0.2814 | -14.88 | -37.45 |
| `COc1ccc(C(NCc2cccc(C#N)c2)C2CC2)cc1` (stereo not drawn) | -1.254 | -33.97 | -13.33 | 1.648 | -14.74 |
| `COc1ccc(CN2CCC3(CC2)NC(=O)CC3c2ccncc2)cc1.O=C(O)C(F)(F)F.O=C(O)C(F)(F)F` (stereo not drawn) | - | -10.65 | - | - | - |
| `CCOc1ccc(NC(=O)Cn2cc(I)cn2)cc1` | -0.6135 | 10.9 | -24.29 | 3.038 | 5.576 |
| `CN(C)C(=O)CC1CC2(CCN(Cc3ccsc3)CC2)c2ccccc21` (stereo not drawn) | 4.841 | - | -11.94 | 6.266 | 13.68 |
| `CCn1ccc2ccc(CN3CCCC3c3nc(C(C)C)no3)cc21` (stereo not drawn) | -2.894 | -19.12 | -33.75 | 6.584 | -9.016 |
| `Cc1csc(CN(CC2CCCO2)C(=O)c2ccc(C)nc2C)n1` (stereo not drawn) | 4.338 | -2.005 | -13.65 | 12.74 | -9.795 |
| `O=C(O)C(F)(F)F.O=C(O)C(F)(F)F.[H][C@@]12CCN(C(=O)c3cncc(C)c3)[C@]1([H])CCC(=O)N2CCN(C)C` | - | 1.011 | - | - | - |
| `O=C(O)C(F)(F)F.O=C(O)C(F)(F)F.O=C(O)CN1CCC(F)(F)C2(CCN(c3ccccn3)C2)C1` (stereo not drawn) | - | -7.422 | - | - | - |
| `COCC(C)(C#N)NC(=O)COc1ccccc1` (stereo not drawn) | -2.784 | -6.497 | -18.55 | 1.282 | 1.019 |
| `CC(C)(C)Oc1ccccc1CNC(=O)C1CCCOC1` (stereo not drawn) | 0.3549 | - | -6.51 | -3.567 | -13.66 |
| `O=c1[nH]cc(Nc2ccccc2)c(=O)[nH]1` | -4.126 | 13.12 | 23.7 | -13.28 | 18.26 |
| `O=C(O)C(F)(F)F.[H][C@@]12CN(Cc3ccoc3)CCO[C@]1([H])CN(C(=O)Cc1ccsc1)C2` | - | -1.883 | - | - | - |
| `CCOCCCNC(=O)CN(c1cccc(F)c1)S(C)(=O)=O` | 0.2593 | 4.52 | 8.837 | 3.947 | -20.83 |
| `CC(NC(=O)N1CCC(CO)CC1)c1csc2ccccc12` (stereo not drawn) | -1.883 | -0.8813 | -5.79 | 8.554 | 53 |
| `Cc1ncc(CN2CCCC(c3nc4ccccc4n3C(C)C)C2)s1` (stereo not drawn) | - | -3.607 | -17.7 | -1.115 | -18.85 |
| `Cc1cnn(CC(=O)N2CCC(c3ccn4nccc4n3)CC2)c1` | -12.19 | 9.126 | -15.24 | 6.849 | 4.559 |
| `CCN(CC)C(=O)Cn1cc(-c2nc(-c3ccccc3C)no2)nn1` | -0.122 | 18.24 | 6.493 | 2.273 | -10.88 |
| `O=C(O)C(F)(F)F.O=C(c1cccs1)N1CCC[C@]2(C[C@@H](OCc3ccncc3)CO2)C1` | - | 4.31 | - | - | - |
| `[H][C@@]12CCCC[C@]1(O)CCN(C(=O)c1ccc(C)cc1)C2` | - | 36.38 | - | - | - |
| `Cn1cc(Cl)cc1C(=O)N1CCN(Cc2cccs2)CC1` | -11.44 | -50.73 | -38.34 | 5.627 | -18.89 |
| `CN1CCN(C(=O)NCCc2ccc(F)cc2)[C@H]2CS(=O)(=O)C[C@H]21` | -5.121 | - | -11.56 | -3.421 | -5.434 |

For reference, 6 entries once more:

{"compound": "COc1ccc(S(=O)(=O)N2CCC(O)(CN(C)C)C2)cc1", "stereo": "stereo not drawn", "B": 6.261, "C": -12.95, "D": 1.695, "E": -13.32}
{"compound": "COc1cc(NC(=O)c2cc(Cl)ccc2F)c(C(=O)N(C)C)cc1OC", "A": 1.81, "B": 6.86, "C": 6.998, "D": 0, "E": 6.07}
{"compound": "CN1CCN(C(=O)NCCc2ccc(F)cc2)[C@H]2CS(=O)(=O)C[C@H]21", "A": -5.121, "C": -11.56, "D": -3.421, "E": -5.434}
{"compound": "Cc1cc(C)nc(Nc2nccnc2C2CCCN(C(C)C)C2)n1", "stereo": "stereo not drawn", "A": -3.394, "B": -6.933, "C": -28.91, "D": 5.479}
{"compound": "O=C(O)c1ccccc1-c1c(-c2ccccc2)ncn1CC1CCCO1", "stereo": "stereo not drawn", "A": -5.256, "B": -12.11, "C": -10.57, "D": -1.72, "E": -24.05}
{"compound": "CC(C)(C)Oc1ccccc1CNC(=O)C1CCCOC1", "stereo": "stereo not drawn", "A": 0.3549, "C": -6.51, "D": -3.567, "E": -13.66}

From ChEMBL document CHEMBL3988442, “University of Dundee, Small-Polar-MMV Screening Library” (2021).